The campaign covered roughly 310,000 compounds. About 17,000 (5.5%) were called active. This list was built around the results that the source calls inconclusive (neither active nor inactive); the mix of calls is not that of the screen. The call rests on the fitted dose curve; in most records, active means well fitted inhibition curve with a large enough effect; inconclusive means small, poorly fitted or top-dose-only effect, or effect the other way; inactive means no such curve, though single readings can be large or run the other way. Where the call is inconclusive, the potency comes from a doubtful curve fit.
These molecules were tested against Nuclear receptor ROR-gamma (Mus musculus) (UniProt P51450) (assay: qHTS for inhibitors of ROR gamma transcriptional activity). Conditions: Drosophila S2 Gal4-RORgamma UAS-luciferase reporter, 20 h; activity change, negative = inhibition: at 53.6 µM (top of the series).
Summary of the method: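 Stably transfected Drosophila Schneider cells are the test system, with ROR gamma fused to Gal4 and luciferase under UAS control; luminescence is read after 20 hr of 700 uM copper sulfate induction at ambient temperature.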
Further: nearly all actives have a fitted effect of over 60% in size.
On the % scale 0 is the no-effect control and ±100 the full control effect; potency means the concentration at half of the fitted maximal effect.

Sequences of proteins named here, by UniProt entry; tags and fusion partners are left off. A change or cut given only in a name is not applied to a line headed by its entry.
UniProt P51450: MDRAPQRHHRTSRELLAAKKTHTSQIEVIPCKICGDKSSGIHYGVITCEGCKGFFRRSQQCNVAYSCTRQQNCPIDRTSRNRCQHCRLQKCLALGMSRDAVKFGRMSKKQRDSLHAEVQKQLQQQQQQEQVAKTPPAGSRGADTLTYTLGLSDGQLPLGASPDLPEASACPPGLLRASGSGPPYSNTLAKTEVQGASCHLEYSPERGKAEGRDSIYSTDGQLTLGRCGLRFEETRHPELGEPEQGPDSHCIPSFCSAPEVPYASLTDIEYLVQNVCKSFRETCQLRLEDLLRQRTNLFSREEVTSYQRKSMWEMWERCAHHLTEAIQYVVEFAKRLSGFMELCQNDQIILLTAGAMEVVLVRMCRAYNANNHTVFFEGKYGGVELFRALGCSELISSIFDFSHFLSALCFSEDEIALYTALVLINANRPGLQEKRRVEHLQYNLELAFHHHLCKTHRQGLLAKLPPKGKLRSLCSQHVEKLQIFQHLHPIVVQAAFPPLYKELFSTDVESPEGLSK

Question: How did the Potency turn out when O=C(Nc1cccc(S(=O)(=O)N2CCCCCC2)c1)c1ccc2c(c1)OCO2 was run?
Answer: inconclusive: 0.891 µM [activator, single point]

Question: With Cc1ccc(C)c(NC(=O)CSc2nnc(-c3ccco3)o2)c1 as the molecule, how does the Potency read?
Answer: inconclusive: 0.141 µM [activator, single point]

Question: Which Potency does the source give for CCOc1ccccc1NC(=S)N1CCN(c2cccc(C)c2C)CC1 here?
Answer: active: 6.31 µM

Question: For COc1ccc(/C=C2\CCC(C3CCCC3)C2=O)cc1Cn1cccn1 (centres undefined), which Potency is on record?
Answer: inactive

Question: How did the Potency turn out when Cc1nc(-n2cc(F)c(=O)[nH]c2=O)c2nc(C)oc2n1 was run?
Answer: inconclusive: 0.005 µM [activator, full curve, poor fit]

Question: How did the Potency turn out when C/C=N/NC(=O)c1cc(Br)ccc1O was run?
Answer: active: 11.2 µM

Question: With CS(=O)(=O)NCc1ccc(C(=O)NCCOc2ccccc2)cc1 as the molecule, how does the Potency read?
Answer: inconclusive: 0.708 µM [activator, single point]

Question: How did the Potency turn out when Cc1cccc(NC(=O)N2CCN(Cc3ccc(Cl)cc3)CC2)c1 was run?
Answer: inconclusive: 35.5 µM [activator, single point]

Question: C=CCc1cc(OC)ccc1OCC(O)CN1CCN(c2ccc(OC)cc2)CC1 (centres undefined) was tested. Which Potency did it give?
Answer: inactive

Question: With CC(=O)c1cccc(NC(=O)c2ccc3c(Cl)c4c(nc3c2)CCCC4)c1 as the molecule, how does the Potency read?
Answer: inconclusive: 8.91 µM [inhibitor, partial curve, poor fit]

Question: Cc1cccc(NC(=O)CSc2nnc(-c3cc(C)n(-c4ccccc4)c3C)o2)c1C was tested. Which Potency did it give?
Answer: inconclusive: 0.794 µM [inhibitor, partial curve]

Question: Cc1nc(-c2ccc(NC(=O)c3ccc(Br)o3)cc2)cs1 was tested. Which Potency did it give?
Answer: inactive

Question: How did the Potency turn out when COC(=O)CN1C(=S)N(c2ccc(Cl)cc2)C(=O)C1CC(=O)Nc1ccc(F)cc1 (centres undefined) was run?
Answer: inconclusive: 12.6 µM [activator, single point]

Question: How did the Potency turn out when CCCCCCNc1nc(Cl)nc(NC(C)(C)CO)n1 was run?
Answer: inconclusive: 11.2 µM [activator, partial curve]

Question: How did the Potency turn out when CCOC(=O)C(NC(=O)c1ccccc1)(N1CCOCC1)C(F)(F)F (centres undefined) was run?
Answer: inconclusive: 31.6 µM [inhibitor, single point]

Question: Which Potency does the source give for COc1ccc(/C=N/NC(=O)c2cc(O)c(O)c(O)c2)cc1Cn1cc([N+](=O)[O-])cn1 here?
Answer: inconclusive: 3.16 µM [inhibitor, single point]

Question: For Cc1cccc(N/N=C2/COC(C)(C)CC2=O)c1, which Potency is on record?
Answer: inactive

Question: O=C(CN1CC[n+]2c(-c3ccccc3)csc21)c1ccc(Br)cc1 was tested. Which Potency did it give?
Answer: inconclusive: 10 µM [inhibitor, partial curve]

Question: With Cc1ccc(NC(=S)NNC(=O)CSc2nnc(-c3ccc(Cl)cc3)n2C2CCCCC2)cc1 as the molecule, how does the Potency read?
Answer: active: 11.2 µM

Question: Cc1ccc(/C=N/NC(=O)c2ccc(-n3cccc3)cc2)o1 was tested. Which Potency did it give?
Answer: active: 17.8 µM

Question: For c1ccc(CN2CCN(c3ncnc4c3[nH]c3ccccc34)CC2)cc1, which Potency is on record?
Answer: inconclusive: 6.31 µM [activator, single point]

Question: With O=C(CCc1c[nH]c2ccccc12)N/N=C/c1ccc2c(c1)OCO2 as the molecule, how does the Potency read?
Answer: inconclusive: 31.6 µM [activator, single point]

Question: For COc1cccc(OCCOCC(O)CN2CCN(Cc3ccc(Cl)cc3)CC2)c1 (centres undefined), which Potency is on record?
Answer: inconclusive: 12.6 µM [activator, single point]

Question: For N#C/C(=C/c1ccc(CNS(=O)(=O)c2ccccc2)o1)C(N)=O, which Potency is on record?
Answer: inconclusive: 1.12 µM [activator, full curve, poor fit]

Question: With CCC(NC(=O)c1cccc(Cn2nc(C)c([N+](=O)[O-])c2C)c1)c1ccc(C(C)C)cc1 (centres undefined) as the molecule, how does the Potency read?
Answer: inactive

Question: For O=C1OC(/C(=C\Nc2cc(Cl)ccc2O)[N+](=O)[O-])c2ccccc21 (centres undefined), which Potency is on record?
Answer: inconclusive: 11.2 µM [inhibitor, partial curve, poor fit]

Question: How did the activity change, negative = inhibition turn out when COc1cccc(CNc2cccc3cccnc23)c1O was run?
Answer: inactive: -12.9% [at 0.365 µM]

Question: Which Potency does the source give for Cc1cc(-c2onc3ccc(Cl)cc23)ccc1O here?
Answer: inconclusive: 6.31 µM [inhibitor, single point]

Question: For COc1cccc(/C=N/NC(=O)c2cc3c(OC)ccc(OC)c3[nH]2)c1O, which Potency is on record?
Answer: active: 1.58 µM

Question: With COc1ccc(-c2cc(C(F)F)n3ncc(C(=O)Nc4cc(C)on4)c3n2)cc1 as the molecule, how does the Potency read?
Answer: inconclusive: 35.5 µM [inhibitor, single point]

Question: O=C1c2[nH]nc(-c3ccccc3O)c2C(c2ccccc2F)N1Cc1ccco1 (centres undefined) was tested. Which Potency did it give?
Answer: inconclusive: 11.2 µM [inhibitor, partial curve]

Question: O=C(/C=C/Nc1ccc(F)cc1Br)c1ccccc1 was tested. Which Potency did it give?
Answer: active: 2.51 µM

Question: How did the Potency turn out when CCC(=O)Nc1ccc(C(=O)OCc2ccc(Cl)c(Cl)c2)cc1 was run?
Answer: inconclusive: 17.8 µM [activator, single point]

Question: How did the Potency turn out when CC(=O)c1c(C)[nH]c(C(=O)OCC(=O)NCCc2ccc(Cl)cc2)c1C was run?
Answer: inactive

Question: For COc1cc(-n2c(C)nc3cc(C(=O)N4CCOCC4)ccc32)cc(OC)c1OC, which Potency is on record?
Answer: inactive

Question: Which Potency does the source give for CC1(C)CC(=O)C=C(Nc2ccc(Cl)c(Br)c2)C1 here?
Answer: inconclusive: 11.2 µM [activator, partial curve, poor fit]

Question: Which Potency does the source give for COc1cc(OC)c(C(=O)NCc2ccc3c(c2)OCO3)cc1OC here?
Answer: inconclusive: 7.94 µM [activator, partial curve]

Question: For Cc1ccc(NC(=O)CSc2ccccc2NC(=O)c2ccccc2Cl)cc1Cl, which Potency is on record?
Answer: inconclusive: 12.6 µM [activator, partial curve]

Question: With Cc1ccc(N/N=C(\C#N)C(=N)N2CCOCC2)cc1 as the molecule, how does the Potency read?
Answer: inconclusive: 6.31 µM [activator, single point]

Question: How did the Potency turn out when CCC(C(=O)NCCCN1CCCC1=O)n1c2ccccc2c2nc(=O)cc(C)n21 (centres undefined) was run?
Answer: inactive

Question: O=C(NCCc1ccc(Cl)cc1)c1cccnc1 was tested. Which Potency did it give?
Answer: inconclusive: 15.8 µM [activator, partial curve]

Question: CC1(C)Cc2cccc(OCC(=O)NCCOc3ccccc3)c2O1 was tested. Which Potency did it give?
Answer: inconclusive: 1.12 µM [activator, partial curve, poor fit]

Question: Which Potency does the source give for COc1ccc(/C=C/C(=O)Nc2cccc(N3CCOCC3)c2)cc1OC here?
Answer: inconclusive: 10 µM [activator, partial curve]

Question: How did the Potency turn out when O=C(c1cnsn1)N1CCC(CO)(Cc2ccc(Cl)cc2)CC1 was run?
Answer: inconclusive: 7.08 µM [activator, partial curve]
